Results are given in words; binding and its absence hold for the method and conditions named. Some entries that bind do so weakly or less than the wild type. Each block holds one binder with its values, some of them ahead of it.
How the values were obtained:
[1] = target: T1, Human B7-H4 protein antigen (coated on ELISA plates) (human) (UniProt Q7Z7D3); test: ELISA on coated human B7-H4 antigen, single point and dose response
T1 sequence: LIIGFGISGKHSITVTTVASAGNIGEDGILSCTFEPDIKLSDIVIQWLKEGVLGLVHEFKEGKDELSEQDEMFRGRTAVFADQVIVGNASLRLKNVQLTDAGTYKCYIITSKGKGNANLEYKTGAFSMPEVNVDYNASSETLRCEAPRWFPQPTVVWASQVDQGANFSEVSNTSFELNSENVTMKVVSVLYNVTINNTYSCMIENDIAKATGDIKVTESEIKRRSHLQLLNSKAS

Amino acid sequences for entries named in this document (tags omitted). A change or cut given only in a name is not applied to a line headed by its entry.
UniProt Q7Z7D3: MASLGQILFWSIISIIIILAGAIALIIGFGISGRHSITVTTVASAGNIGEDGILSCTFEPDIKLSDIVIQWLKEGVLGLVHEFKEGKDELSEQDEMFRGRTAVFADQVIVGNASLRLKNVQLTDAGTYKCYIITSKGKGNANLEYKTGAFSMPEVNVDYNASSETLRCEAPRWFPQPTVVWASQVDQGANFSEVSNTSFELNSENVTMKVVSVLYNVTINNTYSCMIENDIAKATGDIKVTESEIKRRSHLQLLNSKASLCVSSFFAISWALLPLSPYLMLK

[2] = target: T1, Human B7-H4 protein antigen (coated on ELISA plates) (human); test: ELISA, conditioned medium on coated human B7-H4 antigen

binding [1]: binds | binding [2]: binds
B1: recombinant chimeric anti-B7-H4 antibody 2H9 (2H9 heavy chain / 2H9 light chain, human IgG4 S228P) (antibody, V domains shown)
VH: EVQLVESGGNLVKPGGSLKLSCAASGFTFSNSAMSWVRQTPEKRLEWVATISDGGRYTYYPDNVKGRFTISRDNAKNNLYLQMSHLKSEDTALYYCARDRPHWYFDVWGTGATVTVSS
VL: DIVLTQSPASLAVSLGQRATISCRASESIDNYGISFMHWYQQKPGQPPKLLIYRASNLESGIPARFSGSGSRTDFTLTINPVETDDVATYFCQQSDEGRTFGGGTKLEIKR
notes: tested as CHO conditioned medium; also called 2H9 HC + 2H9 LC

binding [1]: binds | binding [2]: binds
B2: recombinant chimeric anti-B7-H4 antibody 2D1 (2D1 heavy chain / 2D1 light chain, human IgG4 S228P) (antibody, V domains shown)
VH: EVQLVESGGGLVKPGGSLKLSCAASGFTFNSHGMSWVRQTPEKRLDWVATISDGGTYTYYPVNVKGRFTISRDNAKNNLYLQMSHLKSEDTAMYYCARDGGGGAYWGQGTLVTVSA
VL: DVVMTQTPLSLPVSLGDQASISCRSSHSLVHSNGNTYLHWYLQKPGQSPNLLIYIVSNRFSGVPDRFSGSGSGTDFTLKISRVEAEDLGVYFCSQSTHVPPTFGAGTKLELKR
notes: tested as CHO conditioned medium; also called 2D1 HC + 2D1 LC

From patent publication US20140356364A1 (AMPLIMMUNE, published 2014)
